Test results reported in the supplement of paper PMC7661543.
The effect of the compound repeats well; differences between the knockouts mostly do not.

What was measured:
Test in all cases: relative cell number vs DMSO control (72 h) (% of DMSO); higher = less growth inhibition (more cells)
MDA-MB-231 = system: MDA-MB-231
Method: (§1)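 QMAP-Seq: a pool of 5 breast cancer cell lines (ZR-75-1, SKBR3, HCC-38, MDA-MB-231, BT-20), each carrying 12 doxycycline-inducible Cas9 sgRNA perturbations (11 knockouts plus non-targeting sgNT), was treated with compounds for 72 h at four 10-fold doses (10 nM-10 uM or 1 nM-1 uM range). Barcodes were amplified and sequenced, and cell number was interpolated from 293T spike-in standard curves. The result is expressed as % of the median of DMSO wells. Two biological replicates.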

ZR-75-1 = system: ZR-75-1
Method: as §1

SKBR3 = system: SKBR3
Method: as §1

O=C(c1ccc(/C=C/c2n[nH]c3ccccc23)cc1)N1CCNCC1 [KW2449]
relative cell number
Details | MDA-MB-231 | SKBR3 | ZR-75-1
sgRNA knockout: sgATF3, 10 nM | 105 | 74.1 | 85
sgRNA knockout: sgATF3, 100 nM | 86.9 | 97.1 | 100
sgRNA knockout: sgATF3, 1000 nM | 79.1 | 109 | 53.8
sgRNA knockout: sgATF3, 10000 nM | 50.2 | 72.6 | 51.4
sgRNA knockout: sgATF4, 10 nM | 94.7 | 84.8 | 116
sgRNA knockout: sgATF4, 100 nM | 85.8 | 70.3 | 70.5
sgRNA knockout: sgATF4, 1000 nM | 61.2 | 92.4 | 56.4
sgRNA knockout: sgATF4, 10000 nM | 46.4 | 76.4 | 45.9
sgRNA knockout: sgATF6, 10 nM | 87.8 | 89.9 | 98.1
sgRNA knockout: sgATF6, 100 nM | 102 | 75.8 | 86.1
sgRNA knockout: sgATF6, 1000 nM | 66.3 | 99.2 | 74.5
sgRNA knockout: sgATF6, 10000 nM | 42.8 | 65.1 | 54.4
sgRNA knockout: sgATG7, 10 nM | 84.7 | 87.2 | 95.5
sgRNA knockout: sgATG7, 100 nM | 86.8 | 76.7 | 86.2
sgRNA knockout: sgATG7, 1000 nM | 77.5 | 95.6 | 64.8
sgRNA knockout: sgATG7, 10000 nM | 38.6 | 69.6 | 40.9
sgRNA knockout: sgERN1, 10 nM | 106.5 | 83.1 | 95.2
sgRNA knockout: sgERN1, 100 nM | 115 | 91 | 87.4
sgRNA knockout: sgERN1, 1000 nM | 75.7 | 118 | 53
sgRNA knockout: sgERN1, 10000 nM | 29.1 | 81.096 | 54.5
sgRNA knockout: sgHSF1, 10 nM | 72.3 | 87.1 | –
sgRNA knockout: sgHSF1, 100 nM | 96.3 | 70.3 | –
sgRNA knockout: sgHSF1, 1000 nM | 79.5 | 101 | –
sgRNA knockout: sgHSF1, 10000 nM | 36 | 62.1 | –
sgRNA knockout: sgHSF2, 10 nM | 78.9 | 84.7 | 85.8
sgRNA knockout: sgHSF2, 100 nM | 111 | 83.3 | 105
sgRNA knockout: sgHSF2, 1000 nM | 95.5 | 106 | 47.8
sgRNA knockout: sgHSF2, 10000 nM | 32.6 | 69.3 | 37.4
sgRNA knockout: sgKEAP1, 10 nM | 95.4 | 71.7 | –
sgRNA knockout: sgKEAP1, 100 nM | 89 | 80.8 | –
sgRNA knockout: sgKEAP1, 1000 nM | 91.6 | 93.9 | –
sgRNA knockout: sgKEAP1, 10000 nM | 44.4 | 76.4 | –
sgRNA knockout: sgNFE2L2, 10 nM | 110 | 83.08 | 113
sgRNA knockout: sgNFE2L2, 100 nM | 85.65 | 85.8 | 80.7
sgRNA knockout: sgNFE2L2, 1000 nM | 95.3 | 111 | 57.3
sgRNA knockout: sgNFE2L2, 10000 nM | 32.3 | 78.33 | 51.2
sgRNA knockout: sgSLC35F2, 10 nM | 116 | 80.6 | 63.9
sgRNA knockout: sgSLC35F2, 100 nM | 103 | 92.8 | 45
sgRNA knockout: sgSLC35F2, 1000 nM | 73.3 | 86.8 | 53.7
sgRNA knockout: sgSLC35F2, 10000 nM | 44.3 | 77.6 | 43.8
sgRNA knockout: sgXBP1, 10 nM | 92.7 | 76.6 | 102
sgRNA knockout: sgXBP1, 100 nM | 78.2 | 74.3 | 104
sgRNA knockout: sgXBP1, 1000 nM | 72.7 | 107 | 50.3
sgRNA knockout: sgXBP1, 10000 nM | 29.5 | 68.9 | 41.4

CS(=O)(=O)CCNCc1ccc(-c2ccc3ncnc(Nc4ccc(OCc5cccc(F)c5)c(Cl)c4)c3c2)o1 [Lapatinib]
relative cell number
Details | MDA-MB-231 | SKBR3 | ZR-75-1
sgRNA knockout: sgATF3, 10 nM | 103 | 97.3 | 81.9
sgRNA knockout: sgATF3, 100 nM | 86.5 | 87.1 | 109
sgRNA knockout: sgATF3, 1000 nM | 110 | 47.9 | 89.4
sgRNA knockout: sgATF3, 10000 nM | 38.3 | 17.3 | 42.1
sgRNA knockout: sgATF4, 10 nM | 112 | 96.2 | 119
sgRNA knockout: sgATF4, 100 nM | 102 | 79 | 104
sgRNA knockout: sgATF4, 1000 nM | 81 | 51.6 | 73.8
sgRNA knockout: sgATF4, 10000 nM | 38.4 | 16.8 | 39.9
sgRNA knockout: sgATF6, 10 nM | 85.5 | 87.4 | 81.1
sgRNA knockout: sgATF6, 100 nM | 106 | 73.9 | 76.2
sgRNA knockout: sgATF6, 1000 nM | 87.5 | 48 | 92.6
sgRNA knockout: sgATF6, 10000 nM | 31.4 | 14.5 | 28.8
sgRNA knockout: sgATG7, 10 nM | 96.6 | 98.8 | 90.7
sgRNA knockout: sgATG7, 100 nM | 85.5 | 98.2 | 77.3
sgRNA knockout: sgATG7, 1000 nM | 98.39 | 53.76 | 77.9
sgRNA knockout: sgATG7, 10000 nM | 41.9 | 18.3 | 33.5
sgRNA knockout: sgERN1, 10 nM | 102 | 102 | 87.5
sgRNA knockout: sgERN1, 100 nM | 84.19 | 80.8 | 53.1
sgRNA knockout: sgERN1, 1000 nM | 89 | 44.9 | 94.2
sgRNA knockout: sgERN1, 10000 nM | 36.6 | 16.3 | 36.8
sgRNA knockout: sgHSF1, 10 nM | 87.3 | 82.9 | –
sgRNA knockout: sgHSF1, 100 nM | 80.1 | 76.4 | –
sgRNA knockout: sgHSF1, 1000 nM | 108 | 35.1 | –
sgRNA knockout: sgHSF1, 10000 nM | 26.3 | 17.2 | –
sgRNA knockout: sgHSF2, 10 nM | 96.93 | 97.7 | 98.9
sgRNA knockout: sgHSF2, 100 nM | 86 | 68.5 | 86.6
sgRNA knockout: sgHSF2, 1000 nM | 92.8 | 51.8 | 86.9
sgRNA knockout: sgHSF2, 10000 nM | 29.6 | 16.8 | 35.7
sgRNA knockout: sgKEAP1, 10 nM | 74.4 | 105 | –
sgRNA knockout: sgKEAP1, 100 nM | 101 | 83 | –
sgRNA knockout: sgKEAP1, 1000 nM | 88 | 50.6 | –
sgRNA knockout: sgKEAP1, 10000 nM | 33.7 | 15.2 | –
sgRNA knockout: sgNFE2L2, 10 nM | 87 | 94.6 | 99.4
sgRNA knockout: sgNFE2L2, 100 nM | 91.6 | 71.1 | 72.4
sgRNA knockout: sgNFE2L2, 1000 nM | 99 | 45.1 | 81.49
sgRNA knockout: sgNFE2L2, 10000 nM | 33.3 | 16.6 | 33.3
sgRNA knockout: sgSLC35F2, 10 nM | 107 | 97 | 46
sgRNA knockout: sgSLC35F2, 100 nM | 83.7 | 80 | 78.4
sgRNA knockout: sgSLC35F2, 1000 nM | 89.4 | 51.5 | 121
sgRNA knockout: sgSLC35F2, 10000 nM | 32.8 | 21.1 | 28.4
sgRNA knockout: sgXBP1, 10 nM | 97.4 | 67.4 | 80.7
sgRNA knockout: sgXBP1, 100 nM | 86.2 | 89.2 | 76.3
sgRNA knockout: sgXBP1, 1000 nM | 118 | 45.6 | 78.22
sgRNA knockout: sgXBP1, 10000 nM | 32 | 20.6 | 30.9

CCOc1cc2ncc(C#N)c(Nc3ccc(OCc4ccccn4)c(Cl)c3)c2cc1NC(=O)/C=C/CN(C)C [Neratinib]
relative cell number
Details | MDA-MB-231 | SKBR3 | ZR-75-1
sgRNA knockout: sgATF3, 10 nM | 102 | 111 | 135
sgRNA knockout: sgATF3, 100 nM | 103 | 70.03 | 89.5
sgRNA knockout: sgATF3, 1000 nM | 110 | 27 | 85.4
sgRNA knockout: sgATF3, 10000 nM | 56.3 | 19.6 | 74.8
sgRNA knockout: sgATF4, 10 nM | 90.1 | 84.3 | 113
sgRNA knockout: sgATF4, 100 nM | 112 | 66.9 | 106.23
sgRNA knockout: sgATF4, 1000 nM | 137 | 23.6 | 79
sgRNA knockout: sgATF4, 10000 nM | 43.4 | 22.5 | 41
sgRNA knockout: sgATF6, 10 nM | 114 | 102 | 147
sgRNA knockout: sgATF6, 100 nM | 102 | 75.3 | 89.8
sgRNA knockout: sgATF6, 1000 nM | 56.9 | 29.2 | 88
sgRNA knockout: sgATF6, 10000 nM | 55.6 | 18 | 68.1
sgRNA knockout: sgATG7, 10 nM | 95.6 | 102 | 96.7
sgRNA knockout: sgATG7, 100 nM | 104 | 63.7 | 70.7
sgRNA knockout: sgATG7, 1000 nM | 106 | 23.4 | 56
sgRNA knockout: sgATG7, 10000 nM | 54.6 | 27.4 | 58.9
sgRNA knockout: sgERN1, 10 nM | 111 | 92.64 | 89.6
sgRNA knockout: sgERN1, 100 nM | 99.6 | 68.3 | 75.1
sgRNA knockout: sgERN1, 1000 nM | 100 | 23.1 | 92.3
sgRNA knockout: sgERN1, 10000 nM | 56.1 | 21.7 | 54.6
sgRNA knockout: sgHSF1, 10 nM | 99.2 | 82.9 | –
sgRNA knockout: sgHSF1, 100 nM | 115 | 61.4 | –
sgRNA knockout: sgHSF1, 1000 nM | 82 | 24.77 | –
sgRNA knockout: sgHSF1, 10000 nM | 39.8 | 20.6 | –
sgRNA knockout: sgHSF2, 10 nM | 94.2 | 97.1 | 110
sgRNA knockout: sgHSF2, 100 nM | 96.54 | 69.9 | 66.5
sgRNA knockout: sgHSF2, 1000 nM | 84 | 32 | 66.8
sgRNA knockout: sgHSF2, 10000 nM | 41 | 18 | 56.6
sgRNA knockout: sgKEAP1, 10 nM | 82.2 | 95.9 | –
sgRNA knockout: sgKEAP1, 100 nM | 120 | 58.6 | –
sgRNA knockout: sgKEAP1, 1000 nM | 86 | 24.9 | –
sgRNA knockout: sgKEAP1, 10000 nM | 45 | 20 | –
sgRNA knockout: sgNFE2L2, 10 nM | 106 | 85.2 | 75
sgRNA knockout: sgNFE2L2, 100 nM | 75 | 68.9 | 56.1
sgRNA knockout: sgNFE2L2, 1000 nM | 88 | 26.1 | 109
sgRNA knockout: sgNFE2L2, 10000 nM | 51.2 | 19.1 | 55.8
sgRNA knockout: sgSLC35F2, 10 nM | 73.5 | 82.5 | 90.1
sgRNA knockout: sgSLC35F2, 100 nM | 105 | 68 | 51
sgRNA knockout: sgSLC35F2, 1000 nM | 81.9 | 19.5 | 82.5
sgRNA knockout: sgSLC35F2, 10000 nM | 36.2 | 18.8 | 31.6
sgRNA knockout: sgXBP1, 10 nM | 85.5 | 89.773 | 82.4
sgRNA knockout: sgXBP1, 100 nM | 101 | 79.1 | 70.9
sgRNA knockout: sgXBP1, 1000 nM | 108 | 29.9 | 86
sgRNA knockout: sgXBP1, 10000 nM | 49 | 22.6 | 54.6
